Results are given in words; binding and its absence hold for the method and conditions named. Some results given as binding are weak or reduced against the parent protein; the word gives no strength.
B1: 36D6 (antibody, V domains shown)
VH: EVQLQESGPELKKPGETVKISCKASGYTFTKYGMNWVKQAPGKGLKWLAWINTDTGEAKYSDDFKGRFAFSLETSASIVYLQINNLKNEDTATYFCARGESYSNYVRFVYWGQGTTVTVSS
VL: DIVMTQSHKFMSTSVGDRVSITCKASQDVNTAVAWYQQKAGHSPKLLIYWTSTRHTGVPDRFTGSGSGTDYTLTISSVQAEDLTLYYCQQHYSTPWTFGGGTKLEIK
B2: 36G4 (antibody, V domains shown)
VH: EVQLVESGGGLVQPGGSLKLSCAASGFTFSNYGMSWVRQTPDKRLELVATINSNGGDTSYPDSVRGRFTISRDNAKNTLYLQMSSLKSEDTAMYYCTRGGWSWFAYWGQGTLVTVSA
VL: DIVLTQSPTSLAVSLGQRATISCRASESADSYGNSYMNWYQQKPGQPPKLLIYLASNLESGVPARFSGSGSRTDFTLTIDPVEADDAATYYCQQINEDPYTFGGGTKLEIK
B3: 40F3 (antibody, V domains shown)
VH: QVQLQQPGAELGKPGASVKLSCKASGYTFSSYYIYWLKQRPGQGLEWIGGINPSNDDTHLTEKFKSKATLIADRSSSTAYIQLSSLTSEDSAVYYCTRSYYANSWFAYWGQGTLVTVSA
VL: DIVLTQSPLSLPVSLGDQASISCRSSQTIVHSNGNTYLAWYLQKPGQSPKLLIYKVSNRFSGVPDRFSGSGSGTEFTLKISRVEAEDLGVYYCFQGSHVPYTFGGGTKLEIK
B4: 52B3 (antibody, V domains shown)
VH: EVQLQQSGAELVRSGASVKMSCKASDYTFTSYNLHWVKQTPGQGLEWIGYIYPGNGNTKYSQKFKGKATLTADTSSSTAYMQISSLTSEDSAVYFCTRNYDYYFYTMGYWGQGTTVTVSS
VL: DIVLTQSPKFMSTSVGDRVNITCKASQDVCTAVAWYQQKPGQSPKLLIYSASYRYTGVPDRFTGSGSRTDFTFTISSVQAEDLAVYYCQQHYSTPLTFGAGTKLELK

Amino acid sequences for entries named in this document (tags omitted). Residues count along the entry.
UniProt P78324, residues 31-370: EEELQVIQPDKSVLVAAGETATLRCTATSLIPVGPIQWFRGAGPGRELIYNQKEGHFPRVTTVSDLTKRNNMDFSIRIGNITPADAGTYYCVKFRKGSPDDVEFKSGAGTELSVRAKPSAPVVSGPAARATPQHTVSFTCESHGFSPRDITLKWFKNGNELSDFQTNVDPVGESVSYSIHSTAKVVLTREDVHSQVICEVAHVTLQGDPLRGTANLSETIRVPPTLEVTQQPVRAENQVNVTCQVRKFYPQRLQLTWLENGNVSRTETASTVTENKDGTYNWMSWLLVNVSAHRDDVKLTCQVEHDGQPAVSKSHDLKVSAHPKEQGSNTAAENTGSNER

What follows are binders tested against 重组hu-SIRPα-his (human) (UniProt P78324) (assay: ELISA on coated hu-SIRPα-his).
For B1, the binding was “binds”. B2 was tested, and the binding was “binds”. For B3, the binding was “binds”. With B4 the binding was “binds”.
